## Screening data, single-dose tests

From ChEMBL document CHEMBL3988442, “University of Dundee, Small-Polar-MMV Screening Library” (2021).

Each number is a percent effect as filed.
The controls that fix the scale are not given in the record; negative values are as filed.
This is an unselected part of the compounds tested.

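Whole-parasite assay of Trypanosoma brucei over 72 hours; the read-out is not stated. Concentration: 30 µM. Direction is inferred from retests: higher values go with stronger inhibition. Values scatter widely below zero; nearly all retest evidence comes from the higher of the two concentrations used. Of about 64,000 compounds tested this way, about 940 (1.5%) reached 50% or more in at least one test.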

For CN(CCC(=O)N1CCCC(Cc2cccnc2)C1)Cc1cccnc1 (configuration not stated) the result was 9.884%. Cc1cn(CC(=O)NCC(=O)NC2CC2)c2ccccc12 gave -17.11%. With Cc1cc(N(C)C)nc(C2(C)CCCN2C(=O)c2ccn(C)n2)n1 (configuration not stated) the screen gave 9.467%. With O=C(O)C(F)(F)F.O=C(O)C(F)(F)F.O=C1CC2(CCN(Cc3ccncc3)C2)CN1c1ccc2c(c1)OCO2 (configuration not stated) the screen gave 16.03%. With CC(C)Oc1cc(N2CCC(C(N)=O)CC2)nc(N)n1 the screen gave -20.65%. Result for COc1ccc(CN2CCCC2)cc1Oc1ccc(NC(C)=O)cc1 was -7.755%.

For CC(=O)NCC(=O)N1CCn2cc(CN3CCN(C)CC3)nc2C1.O=C(O)C(F)(F)F.O=C(O)C(F)(F)F the result was 7.611%. [H][C@]12CCN(Cc3ccco3)[C@@]1([H])CC[C@H](COCC1CCOCC1)O2 read -54.32%. Result for CCOc1nnc(CN2CCCC(c3nc4ccccc4[nH]3)C2)s1 (configuration not stated) was -9.691%. For NC(=O)C1CN(c2ccc3cc(Br)ccc3n2)CCO1 (configuration not stated) the result was -33.51%. [H][C@@]12CN(C(=O)N(C)C)C[C@]1([H])C(=O)N(C)C21CCN(C(=O)C(C)C)CC1 gave -18.44%. Result for O=C(O)C(F)(F)F.O=C(c1cccc(Cl)c1)N1CCCC2(CCCNC2)C1 (configuration not stated) was 8.301%.

With CN(Cc1cc[nH]n1)C(=O)c1cn(Cc2c(F)cccc2F)nn1 the screen gave 12.31%. Result for CC(C)(C)CC(NC(=O)N1CCS(=O)(=O)CC1)C(F)(F)F (configuration not stated) was -8.703%. CCOc1ccc2[nH]c(=O)c(CN3CCCC3c3ccccn3)cc2c1 (configuration not stated) gave -5.707%. Cc1ncnc(N2CCCN(c3nc4ccccc4s3)CC2)c1C read 31.61%. Result for c1nc2c(c(NCCCn3cncn3)n1)CCN(CC1CCOC1)CC2 (configuration not stated) was -6.761%. For COc1ccc(C)cc1CN(C)CCCNS(C)(=O)=O the result was -28.17%.

O=C(O)C[C@@H]1CCN(C(=O)C2CCCC2)C[C@@H]1CCN1CCCCC1 gave -7.544%. Cc1cccc(NC(=O)[C@@H]2CCCN2Cc2cnc3ccccn23)n1 gave -29.19%. Result for O=C(CN1CCC(C(=O)c2cc(F)ccc2F)CC1)NC1CCCC1 was -20.09%. With Cc1ccc(N2CCN(C)c3ncccc3C2)nn1.O=C(O)C(F)(F)F the screen gave -46.61%. For Cc1ccc2c(c1)c(CNC(=O)C1CCN(C(=O)C3CC3)CC1)nn2C the result was -2.811%. With CCc1cc(N2CCN3CCCCC3C2)n2nccc2n1 (configuration not stated) the screen gave 12.86%.

Result for OCC1(NCc2cnc(-c3ccsc3)s2)CCOCC1 was -28.87%. Result for O=C(O)C(F)(F)F.c1ncn(Cc2cn3c(n2)CN(CC2CCCCC2)CC3)n1 was -140.7%. For COCC(=O)N(Cc1cccnc1)CC1CCCN(C2CCCCC2)C1 (configuration not stated) the result was 7.273%. Result for CCN(C(=O)c1c(Cl)cnn1CC)C(C)C(N)=O (configuration not stated) was -11.72%. With Cn1cc(NC(=O)c2cccc(-n3cnnn3)c2)cn1 the screen gave -15.91%. CCCNC(=O)c1cc(C2CCCN(Cc3ccccn3)C2)no1 (configuration not stated) gave -20.09%.

Result for CCc1nc(CC(=O)N2CCCC2CN2CCCC2)cs1 (configuration not stated) was -2.142%. COC(=O)[C@H](CCSC)NC(=O)Cc1c(C)nn(-c2ccccc2)c1C read 101%. Cc1cc(C)n(-c2ccc(C(C)NS(=O)(=O)CCCS(C)(=O)=O)cc2)n1 (configuration not stated) gave -3.116%. Result for CC(=O)N1CCC(c2cnc(NC3CCOCC3)cn2)CC1 was -15.46%. For Cc1nnc2n1CCN(CC(=O)NC(C)c1cc3ccccc3o1)C2 (configuration not stated) the result was -26.31%. Result for CC(C)Cn1c2c(ccc1=O)CC(NC(=O)c1ccsc1)CC2 (configuration not stated) was -46.97%.

COCCN1CCc2ncnc(NC(C)C)c2CC1.O=C(O)C(F)(F)F read -69.57%. For COc1ccc(C(=O)N2CCC(Nc3cccnn3)CC2)c(OC)c1 the result was -11.89%. Result for CN(C)C(c1ccccn1)[C@H]1CC[C@H](CNC(=O)CC2CCCC2)CC1 (some centres not stated) was 11.31%. [H][C@]12CN(CC)C(=O)[C@@]1([H])CN(S(=O)(=O)c1cccs1)C2 gave -24.19%. Result for COc1cccc(COCC(=O)N2CCCCCC2)c1 was -18.49%. Result for CSCCCN1CCCC1c1noc(C)n1 (configuration not stated) was 2.079%.

CC(C)(C)n1cc(NCc2cscn2)cn1 gave -1.958%. Result for Cc1noc(C(C)C)c1C(=O)NCC(c1ccccc1)N(C)C (configuration not stated) was -5.577%. For c1cc(CN2CCOC[C@H]2c2nc(-c3ccncc3)c[nH]2)ccn1 the result was -14.86%. COCc1noc(C2(c3ccc(Cl)cc3)CCOCC2)n1 read -33.81%.

Some entries from above, unchanged:

- c1cc(CN2CCOC[C@H]2c2nc(-c3ccncc3)c[nH]2)ccn1 | -14.86%
- Cc1cc(N(C)C)nc(C2(C)CCCN2C(=O)c2ccn(C)n2)n1 (configuration not stated) | 9.467%
- Cc1nnc2n1CCN(CC(=O)NC(C)c1cc3ccccc3o1)C2 (configuration not stated) | -26.31%
- COc1ccc(C(=O)N2CCC(Nc3cccnn3)CC2)c(OC)c1 | -11.89%